# Measured values as given in PubChem BioAssay AID720504 (National Center for Advancing Translational Sciences (NCATS), 2013).
# The chains behind the UniProt entries cited, without tags or fusion partners.
# UniProt P53350, whole entry, looked up: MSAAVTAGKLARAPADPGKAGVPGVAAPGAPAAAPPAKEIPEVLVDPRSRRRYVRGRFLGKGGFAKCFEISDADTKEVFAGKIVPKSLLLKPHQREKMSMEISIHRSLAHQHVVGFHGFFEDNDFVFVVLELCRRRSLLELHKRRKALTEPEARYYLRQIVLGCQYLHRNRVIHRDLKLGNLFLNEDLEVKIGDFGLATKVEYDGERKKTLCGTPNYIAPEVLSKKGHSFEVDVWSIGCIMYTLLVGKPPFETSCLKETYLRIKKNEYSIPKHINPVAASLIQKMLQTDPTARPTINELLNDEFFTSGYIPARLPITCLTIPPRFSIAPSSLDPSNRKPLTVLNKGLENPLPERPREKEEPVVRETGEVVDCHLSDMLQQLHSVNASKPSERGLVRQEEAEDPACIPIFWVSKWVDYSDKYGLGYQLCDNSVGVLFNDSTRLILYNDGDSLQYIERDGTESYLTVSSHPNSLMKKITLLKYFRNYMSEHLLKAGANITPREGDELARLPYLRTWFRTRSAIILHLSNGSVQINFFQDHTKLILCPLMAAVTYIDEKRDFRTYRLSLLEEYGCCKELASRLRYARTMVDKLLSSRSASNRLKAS
# The whole screen tested about 360,000 compounds, of which about 10,000 (2.8%) were called active. The inconclusive results got no clear call from the source; some entries with a clear call stand among them for comparison. Calls follow the shape of the dose curve; as a rule, active = well fitted inhibition curve with a large enough effect; inconclusive = small, poorly fitted or top-dose-only effect; inactive = flat fitted curve, though single readings scatter. A potency beside an inconclusive call is a rough fit, not a confirmed value.
# Target: Serine/threonine-protein kinase PLK1 (Homo sapiens) (UniProt P53350)
# Experiment: qHTS for Inhibitors of PLK1-PDB (polo-like kinase 1 - polo-box domain): Primary Screen; also: nearly all actives have a fitted effect of over 65% in size; as to max response, negative = inhibition: series mostly up to about 57 µM
# Conditions: Plk1 PBD binding of FITC phosphopeptide, fluorescence polarization
# Source text: The polo-like kinase 1 (Plk1) is a member of a conserved subfamily of serine / threonine protein kinases that plays a pivotal roles in cell proliferation. It has a C-terminal non-catalytic region called the polo-box domain (PBD) that plays a crucial role in the subcellular localization of the Plk1. […] Furthermore, depletion of the overexpressed Plk1 by RNAi efficiently induces apoptotic cell death in cancer and reduces tumor growth in mouse xenograft models. Thus, targeting Plk1 is an appealing strategy for anti-cancer therapy. Therefore, this project aimed to screen the Molecular Libraries Small Molecule Repository (MLSMR) using a novel approach to find inhibitors that target the Plk1 PBD instead of the conventional N-terminal catalytic domain. This project employed a fluorescence polarization (FP) assay using a FITC-conjugated phospho-9-mer (p-9-mer) peptide and purified human Plk1 PBD protein. The identified small molecule inhibitors of Plk1 PBD can then further be developed into useful tools for biomedical and clinical research that complements or replaces current relevant disease therapy. NIH Chemical Genomics Center [NCGC] NIH Molecular Libraries Probe Centers Network [MLPCN] MLPCN Grant: MH100728 Assay Submitter (PI): Kyung Lee, NCI
# Four microliter of 25 nM FITC-p-9-mer + 60 nM Plk1 PBD in buffer solution (final concentrations 25 nM and 60 nM respectively) or 4 uL of 25 nM FITC-p-9-mer (final concentration 25 nM) in buffer will be dispensed into a 1,536 Greiner medium-binding black solid plate. Small molecules at final concentrations of 18 nM to 57 uM and positive control phospho-9-mer (sequence: Ac-PPLHSpTAI-NH2) at final concentrations 26 nM to 57 uM and phospho-13-mer (sequence: Ac-[…]pTAI-NH2) at final concentrations of 1 nM to 2.3 uM will be pin-transferred (23 nL) to the plate via a Kalypsys pin-tool robotics equipped with a 1,536-pin array. The reaction plate will be centrifuged for 1 min at 1000 rpm and incubated at room temperature for 10 min. The FITC fluorescence signals will be read using the PerkinElmer ViewLux plate reader at 480 / 20 nm excitation and 540 / 20 nm S and P polarization emission wavelengths. Reagent bottles will be kept submerged into 4 °C recirculating chiller bath and all liquid lines will be covered with aluminum foil to minimize degradation. Library plates will be screened starting from the lowest to the highest concentrations to minimize compound carryover. Vehicle only plates, with DMSO being pin-transferred instead of compound solutions, will be included regularly throughout the screen to record any systematic shifts in assay signal.
# % is scaled to controls: 0 for no effect and ±100 for the full control effect; potency is read from the fitted curve at half-maximal effect.
SMILES,Potency,"max response, negative = inhibition"
O=C(CSC(=S)N1CCCC1)c1cc(Br)cc(Br)c1O,"inconclusive: 29.9 µM [inhibitor, partial curve]",
O=c1cc(C2CCCCC2)[nH]c(=O)[nH]1,,inactive: -1.16%
CC(C)C1Nc2ccc(C(=O)NCc3ccco3)cc2NC1=O (stereo not given),,inactive: -16.9%
CN(C)CCCOc1nn(Cc2ccccc2)c2ccccc12,,inactive: 0.815%
CC(C)(C)c1cc(C(=O)NC2CC2)n(Cc2ccc(F)cc2)n1,,inactive: -21%
Cn1c(SCC(=O)NC(=O)NCc2ccco2)nnc1-c1ccccc1,,inconclusive: -32.6% [inhibitor]
CC(=O)Nc1ccc(/C(C)=N/NC(=O)c2ccc(F)cc2)cc1,"inconclusive: 29.9 µM [inhibitor, partial curve]",
CC(=O)c1ccc(N(CC(=O)NC2CCS(=O)(=O)C2)S(=O)(=O)c2ccc(Cl)cc2)cc1 (stereo not given),,inactive: -20.7%
C/C(=N\NC(=O)CNC(=O)c1cccnc1)c1cccc(O)c1,"inconclusive: 26.7 µM [inhibitor, single point]",
Cc1ccc2cc3c(NS(=O)(=O)c4cccc5nonc45)nn(CC(C)C)c3nc2c1,"inconclusive: 21.2 µM [inhibitor, single point]",
CN(CC(=O)N1CCOCC1)C(=O)CSc1nc2ccccc2s1,"inconclusive: 26.7 µM [inhibitor, single point]",
COc1ccc(-c2[nH]c(-c3ccc(F)cc3)nc2SCC(=O)NC2CCCC2)cc1,,inactive: -7.52%
O=C(CN1CCN(c2ccc(F)cc2)CC1)NCc1cccs1,,inactive: -3.92%
C/C(=N\Nc1c(F)c(F)c(Br)c(F)c1F)c1ccncc1,,inactive: -10.9%
O=C(c1ccc2c(c1)OCCO2)C1CCN(C(=O)c2ccc(F)c(F)c2)CC1,,inactive: -12.8%
CCCCn1c(N)c(N(CCC(C)C)C(=O)C2CC(=O)N(c3ccc4c(c3)OCCO4)C2)c(=O)[nH]c1=O (stereo not given),active: 11.9 µM,
O=C(Cc1c(Sc2ccccc2)c2ccccc2n1Cc1ccccc1)NCCO,,inactive: 2.31%
Cc1cccc(OCCCc2c(C)n[nH]c2C)c1,,inactive: -11.8%
O=C(Nc1ccc(Cl)cc1)Nn1cnnc1,,inactive: 6.87%
NC(=S)N/N=C/c1cn(-c2ccccc2)nc1-c1cccnc1,active: 3.36 µM,
Cc1ccc(/C(=N/Nc2nc3ccccc3s2)C2=C(O)c3ccccc3C2=O)cc1,"inconclusive: 29.9 µM [inhibitor, single point]",
O=C1c2ccccc2CC1Sc1nnc(-c2ccccn2)o1 (stereo not given),active: 23.8 µM,
O=c1nc(Nc2ccc(OCc3ccccc3)cc2)sc2ncccc12,,inactive: -7.65%
O=C(O)c1ccc(Nc2cc(Cl)c3nonc3c2[N+](=O)[O-])cc1,active: 4.74 µM,
O=C(/C(=C/O)N=Nc1ccccc1)c1cccs1,"inconclusive: 21.2 µM [inhibitor, single point]",

# Look-ups from the list:
# `O=C1c2ccccc2CC1Sc1nnc(-c2ccccn2)o1` (stereo not given) | Potency: active: 23.8 µM
# `COc1ccc(-c2[nH]c(-c3ccc(F)cc3)nc2SCC(=O)NC2CCCC2)cc1` | max response, negative = inhibition: inactive: -7.52%
# `O=C(O)c1ccc(Nc2cc(Cl)c3nonc3c2[N+](=O)[O-])cc1` | Potency: active: 4.74 µM

# The listing continues:

SMILES,Potency,"max response, negative = inhibition"
N#Cc1sc(=O)[nH]c1Cl,"inconclusive: 26.7 µM [inhibitor, single point]",
[O-]/[N+](=N\Nc1ccc(Cl)cc1)c1ccccc1,"inconclusive: 33.6 µM [inhibitor, single point]",
COc1ccc(-n2c(-c3ccc(Cl)cc3Cl)n[nH]c2=S)c(OC)c1,active: 23.8 µM,
CSc1nc(C)cc(SC(C(C)=O)C(=O)Nc2ccccc2)n1 (stereo not given),active: 26.7 µM,
COc1cc(O)c(C(C)=O)c(OC)c1,"inconclusive: 26.7 µM [inhibitor, partial curve]",
COc1cccc(NC(=O)c2nnn(CC(=O)Nc3cc(C)cc(C)c3)c2N)c1,active: 26.7 µM,
CCOC(=O)CNc1nc(C#N)nc(N2CCOCC2)n1,,inactive: -5.85%
COc1ccc(-c2c(C)nn3c(N)c(C#N)cnc23)cc1OC,"inconclusive: 26.7 µM [inhibitor, partial curve]",
CCc1ccccc1N=Cc1c(C)c(C#N)c2[nH]c3ccccc3n2c1=O,"inconclusive: 26.7 µM [inhibitor, partial curve]",
O=C1NC(=O)N(c2ccc(Cl)cc2)C(=O)/C1=C/c1ccc2c(c1)CCN2Cc1ccccc1Cl,"inconclusive: 33.6 µM [inhibitor, partial curve]",
Cc1ccc(NC(=O)c2nc(S(=O)(=O)Cc3ccccc3C)ncc2Cl)cc1C,active: 26.7 µM,
COc1ccc(N=c2cc(-c3ccc(O)cc3)oc3ccccc23)cc1,,inactive: 7.35%
O=C(O)c1ccc(/C=N/Nc2cccc(C(F)(F)F)c2)cc1,"inconclusive: 23.8 µM [inhibitor, single point]",
S=C(NCCc1ccccc1)Nc1cccc2cnccc12,"inconclusive: 26.7 µM [inhibitor, partial curve]",
CC(C)[C@H](NC(=O)N1CC(=O)Nc2ccccc21)C(=O)N[C@H](C(=O)O)c1ccccc1,"inconclusive: 26.7 µM [inhibitor, partial curve, poor fit]",
COc1ccc(Nc2nc3ccccc3c(=O)[nH]2)cc1,active: 23.8 µM,
Cc1cc(Cl)n2c(nc3cc(F)c(F)cc32)c1C#N,"inconclusive: 2.99 µM [inhibitor, full curve]",
Cc1cccc(NS(=O)(=O)c2c(C(=O)N3CCOCC3)c(C)n(C)c2C)c1C,"inconclusive: 21.2 µM [inhibitor, single point]",
COc1ccc(C(C)=O)cc1CN(C)C,,inconclusive: -32.4% [inhibitor]
COCC(C)NC(=O)c1ccc(Cl)c(Cl)c1 (stereo not given),,inactive: -9.11%
Cc1ccc([C@H]2C(C(=O)O)=CC[C@@H](c3ccc(C(C)C)cc3)N2S(=O)(=O)c2ccc(C)cc2)cc1,active: 23.8 µM,
C=CCOc1c(OC)cc(/C=N/Nc2cccc(C(=O)O)c2)c(Br)c1Br,active: 29.9 µM,
Cc1c(C(=O)Nc2ccc3c4c(cccc24)CC3)cccc1[N+](=O)[O-],active: 26.7 µM,
CCOC(=O)c1c(-c2ccccc2)csc1NC(=O)c1nn(CC)cc1Br,"inconclusive: 37.7 µM [inhibitor, single point]",
CC(=O)Nc1ccc(/C=C(\C#N)S(=O)(=O)c2ccc(C)cc2)cc1,,inactive: -20.9%
